The source of these data is article PMC4626870.

Sequences of proteins named here, by UniProt entry; tags and fusion partners are left off.
UniProt P19785: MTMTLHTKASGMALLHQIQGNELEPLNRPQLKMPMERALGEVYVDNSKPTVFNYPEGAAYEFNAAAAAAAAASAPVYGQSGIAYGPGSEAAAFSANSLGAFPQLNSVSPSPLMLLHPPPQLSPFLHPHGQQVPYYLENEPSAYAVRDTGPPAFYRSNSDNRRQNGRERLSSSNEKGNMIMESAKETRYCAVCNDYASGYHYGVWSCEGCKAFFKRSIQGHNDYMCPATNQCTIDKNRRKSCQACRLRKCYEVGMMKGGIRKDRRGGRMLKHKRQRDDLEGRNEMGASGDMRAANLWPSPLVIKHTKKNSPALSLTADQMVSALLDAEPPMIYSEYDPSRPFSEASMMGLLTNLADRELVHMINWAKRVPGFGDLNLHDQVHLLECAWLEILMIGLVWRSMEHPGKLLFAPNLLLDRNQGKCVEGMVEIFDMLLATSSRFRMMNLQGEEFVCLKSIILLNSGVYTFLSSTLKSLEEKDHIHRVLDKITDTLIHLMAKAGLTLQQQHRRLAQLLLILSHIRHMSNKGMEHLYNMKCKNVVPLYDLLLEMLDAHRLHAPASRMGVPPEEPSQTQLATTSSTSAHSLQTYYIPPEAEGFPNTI
UniProt O08537: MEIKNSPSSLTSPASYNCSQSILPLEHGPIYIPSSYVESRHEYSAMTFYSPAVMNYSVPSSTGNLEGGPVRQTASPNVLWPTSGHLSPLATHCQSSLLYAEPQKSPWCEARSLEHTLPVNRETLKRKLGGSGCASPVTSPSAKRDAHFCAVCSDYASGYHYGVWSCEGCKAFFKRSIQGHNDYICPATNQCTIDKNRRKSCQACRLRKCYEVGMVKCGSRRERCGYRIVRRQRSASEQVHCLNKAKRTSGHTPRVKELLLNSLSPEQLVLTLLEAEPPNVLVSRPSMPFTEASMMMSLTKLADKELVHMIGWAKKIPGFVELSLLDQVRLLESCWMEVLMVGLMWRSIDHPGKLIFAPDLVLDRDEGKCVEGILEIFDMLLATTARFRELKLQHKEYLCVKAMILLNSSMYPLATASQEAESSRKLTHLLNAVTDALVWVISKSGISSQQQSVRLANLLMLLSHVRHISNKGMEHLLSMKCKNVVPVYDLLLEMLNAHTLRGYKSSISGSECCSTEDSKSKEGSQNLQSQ
UniProt P06211: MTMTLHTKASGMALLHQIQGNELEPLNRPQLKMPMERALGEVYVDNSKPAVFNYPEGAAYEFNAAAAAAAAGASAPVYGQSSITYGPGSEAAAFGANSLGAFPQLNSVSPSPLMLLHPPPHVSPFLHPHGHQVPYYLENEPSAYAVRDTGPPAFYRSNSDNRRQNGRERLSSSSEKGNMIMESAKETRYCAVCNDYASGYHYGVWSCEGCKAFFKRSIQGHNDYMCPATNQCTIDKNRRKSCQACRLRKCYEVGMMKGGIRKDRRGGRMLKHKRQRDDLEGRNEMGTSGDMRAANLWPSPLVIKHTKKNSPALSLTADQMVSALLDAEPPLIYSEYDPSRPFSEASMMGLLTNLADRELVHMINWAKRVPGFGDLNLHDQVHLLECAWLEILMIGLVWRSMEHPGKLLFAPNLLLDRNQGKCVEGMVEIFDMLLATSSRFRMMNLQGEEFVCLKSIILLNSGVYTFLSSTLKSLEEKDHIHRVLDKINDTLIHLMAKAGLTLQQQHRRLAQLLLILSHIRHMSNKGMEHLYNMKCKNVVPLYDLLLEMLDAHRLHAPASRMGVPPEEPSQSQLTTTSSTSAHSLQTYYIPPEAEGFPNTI
UniProt Q62986: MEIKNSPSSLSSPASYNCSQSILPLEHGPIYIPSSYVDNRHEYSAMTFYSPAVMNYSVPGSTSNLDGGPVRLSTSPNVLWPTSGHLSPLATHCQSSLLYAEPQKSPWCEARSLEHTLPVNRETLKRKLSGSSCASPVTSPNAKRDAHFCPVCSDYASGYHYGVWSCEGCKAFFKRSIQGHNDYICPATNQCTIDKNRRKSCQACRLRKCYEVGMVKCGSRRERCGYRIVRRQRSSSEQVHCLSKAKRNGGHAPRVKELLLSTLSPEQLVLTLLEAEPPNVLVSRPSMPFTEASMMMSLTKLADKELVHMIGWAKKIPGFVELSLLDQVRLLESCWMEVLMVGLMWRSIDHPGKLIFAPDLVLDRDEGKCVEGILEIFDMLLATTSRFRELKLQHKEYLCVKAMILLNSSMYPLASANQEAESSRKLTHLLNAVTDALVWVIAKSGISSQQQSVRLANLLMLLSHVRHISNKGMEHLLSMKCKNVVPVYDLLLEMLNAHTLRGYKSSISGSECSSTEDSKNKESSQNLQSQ

Test [1] addresses oestrogen receptor α (ERα), endogenous in C2C12 cells (mouse (endogenous in C2C12)) (UniProt P19785). In words: co-IP; C2C12 lysates after 1-h treatment with E2 (10 μM); ER antibody coated columns; eluates blotted.
Test [2] has as its target oestrogen receptor β (ERβ), endogenous in C2C12 cells (mouse (endogenous in C2C12)) (UniProt O08537). The description is as above.
The target in test [3] is oestrogen receptor α (ERα), endogenous in neonatal rat cardiomyocytes (rat (endogenous in NRCM)) (UniProt P06211). In words: co-IP; NRCM lysates after 1-h treatment with E2 (10 μM); ER antibody coated columns; eluates blotted.
The target in test [4] is oestrogen receptor β (ERβ), endogenous in neonatal rat cardiomyocytes (rat (endogenous in NRCM)) (UniProt Q62986). The test is described as above.

No constants are given. Whether binding was seen depends on the method and setting. Binding seen in cells or lysates may run through a third protein. Some binding calls cover weakened binding; strength is not graded here.

B1: LKB1, endogenous in C2C12 cells (enzyme, UniProt Q9WTK7 1-436)
chain: MDVADPEPLGLFSEGELMSVGMDTFIHRIDSTEVIYQPRRKRAKLIGKYLMGDLLGEGSYGKVKEVLDSETLCRRAVKILKKKKLRRIPNGEANVKKEIQLLRRLRHRNVIQLVDVLYNEEKQKMYMVMEYCVCGMQEMLDSVPEKRFPVCQAHGYFRQLIDGLEYLHSQGIVHKDIKPGNLLLTTNGTLKISDLGVAEALHPFAVDDTCRTSQGSPAFQPPEIANGLDTFSGFKVDIWSAGVTLYNITTGLYPFEGDNIYKLFENIGRGDFTIPCDCGPPLSDLLRGMLEYEPAKRFSIRQIRQHSWFRKKHPLAEALVPIPPSPDTKDRWRSMTVVPYLEDLHGRAEEEEEEDLFDIEDGIIYTQDFTVPGQVLEEEVGQNGQSHSLPKAVCVNGTEPQLSSKVKPEGRPGTANPARKVCSSNKIRRLSACKQQ
Turning to B1, the binding entry in test [1] and in test [2] was “binds” in each case.

B2: LKB1, endogenous in neonatal rat cardiomyocytes (enzyme, UniProt D4AE59 1-436)
chain: MDVADPQPLGLFPEGELMSVGMDTFIHRIDSTEVIYQPRRKRAKLIGKYLMGDLLGEGSYGKVKEVLDSETLCRRAVKILKKKKLRRIPNGEANVKKEIQLLRRLRHRNVIQLVDVLYNEEKQKMYMVMEYCVCGMQEMLDSVPEKRFPVCQAHGYFRQLIDGLEYLHSQGIVHKDIKPGNLLLTTNGTLKISDLGVAEALHPFAVDDTCRTSQGSPAFQPPEIANGLDTFSGFKVDIWSAGVTLYNITTGLYPFEGDNIYKLFENIGRGDFTIPCDCAPPLSDLLRGMLEYEPAKRFSIRQIRQHSWFRKKHPLAEALVPIPPSPDTKDRWRSMTVVPYLEDLHGRAEEEEDEDLFDIEDGIIYTQDFTVPGQVLEEEVGQNGQSHSLPKAVCVNGTEPQLSSKVKPEGRPGAANPARKVCSSNKIRRLSACKQQ
With B2, the binding result in test [3] and in test [4] was “binds” each time.
